Paper PMC10808971
Results are given in words; binding and its absence hold for the method and conditions named. Binding seen in cells or lysates may run through a third protein. Some results given as binding are weak or reduced against the parent protein; the word gives no strength. For some of these results: Where a sequence is shown, tags or fusion partners need not be part of it.

Sequences of proteins named here, by UniProt entry; tags and fusion partners are left off. A change or cut given only in a name is not applied to a line headed by its entry.
UniProt Q13546: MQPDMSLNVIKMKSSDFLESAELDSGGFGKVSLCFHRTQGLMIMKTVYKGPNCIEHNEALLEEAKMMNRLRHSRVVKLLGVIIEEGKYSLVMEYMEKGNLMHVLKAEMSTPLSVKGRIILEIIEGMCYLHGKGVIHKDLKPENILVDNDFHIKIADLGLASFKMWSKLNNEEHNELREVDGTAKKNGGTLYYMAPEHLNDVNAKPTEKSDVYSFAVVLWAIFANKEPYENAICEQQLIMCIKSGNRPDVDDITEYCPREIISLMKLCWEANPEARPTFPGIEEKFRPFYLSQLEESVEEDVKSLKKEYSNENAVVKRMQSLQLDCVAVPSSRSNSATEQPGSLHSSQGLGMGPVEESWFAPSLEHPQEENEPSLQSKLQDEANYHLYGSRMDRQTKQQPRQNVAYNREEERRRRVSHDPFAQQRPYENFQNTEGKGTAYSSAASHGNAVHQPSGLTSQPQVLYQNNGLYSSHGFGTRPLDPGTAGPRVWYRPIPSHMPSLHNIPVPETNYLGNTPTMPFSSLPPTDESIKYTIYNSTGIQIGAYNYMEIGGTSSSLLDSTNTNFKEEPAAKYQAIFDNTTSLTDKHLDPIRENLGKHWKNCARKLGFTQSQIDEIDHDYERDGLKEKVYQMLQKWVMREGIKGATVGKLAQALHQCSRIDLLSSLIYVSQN
UniProt Q14145: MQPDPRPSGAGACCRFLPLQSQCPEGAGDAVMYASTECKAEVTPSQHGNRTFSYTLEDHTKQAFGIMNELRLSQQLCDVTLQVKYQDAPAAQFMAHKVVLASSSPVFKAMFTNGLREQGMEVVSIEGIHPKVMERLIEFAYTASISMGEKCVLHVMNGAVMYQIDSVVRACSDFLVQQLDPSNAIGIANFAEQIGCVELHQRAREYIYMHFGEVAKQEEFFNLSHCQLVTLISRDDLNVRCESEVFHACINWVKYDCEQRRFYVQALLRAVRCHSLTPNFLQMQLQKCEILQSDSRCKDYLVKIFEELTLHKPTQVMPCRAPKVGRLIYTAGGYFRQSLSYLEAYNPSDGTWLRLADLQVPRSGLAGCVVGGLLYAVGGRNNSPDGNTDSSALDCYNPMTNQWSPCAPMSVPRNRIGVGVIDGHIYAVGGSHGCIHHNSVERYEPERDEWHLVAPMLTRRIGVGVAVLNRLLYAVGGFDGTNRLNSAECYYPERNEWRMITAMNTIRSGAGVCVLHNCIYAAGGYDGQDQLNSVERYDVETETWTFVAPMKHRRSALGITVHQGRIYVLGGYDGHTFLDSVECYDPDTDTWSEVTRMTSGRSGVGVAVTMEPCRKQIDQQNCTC

Key:
[1] = target: T1, 3xMyc-TRAF2 (A549 cells) (UniProt Q12933); assay: co-IP; A549 cells with HA-tagged KEAP1; Flag IP of Flag-RIPK1 or Myc IP of Myc-TRAF2, blot for KEAP1 (Fig. 4B, C, F, G); RIPA lysates, antibody-conjugated magnetic beads
T1 sequence: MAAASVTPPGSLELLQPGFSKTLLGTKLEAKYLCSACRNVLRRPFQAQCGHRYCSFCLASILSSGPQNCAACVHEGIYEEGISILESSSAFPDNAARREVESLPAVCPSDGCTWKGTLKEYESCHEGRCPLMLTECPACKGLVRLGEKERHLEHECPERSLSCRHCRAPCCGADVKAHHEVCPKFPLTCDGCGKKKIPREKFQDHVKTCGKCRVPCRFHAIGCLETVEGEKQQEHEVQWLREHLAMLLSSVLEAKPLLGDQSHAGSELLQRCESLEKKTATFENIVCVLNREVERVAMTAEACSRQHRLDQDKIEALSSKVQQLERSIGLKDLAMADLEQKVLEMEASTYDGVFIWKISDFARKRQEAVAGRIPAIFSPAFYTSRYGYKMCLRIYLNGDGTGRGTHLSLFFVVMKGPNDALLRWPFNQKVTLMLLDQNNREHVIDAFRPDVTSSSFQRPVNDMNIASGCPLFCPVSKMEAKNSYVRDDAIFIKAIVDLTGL

[2] = target: Flag-RIPK1 (receptor-interacting protein serine/threonine protein kinase 1) (UniProt Q13546); assay: as above

| Substance | binding [1] | binding [2] |
| --- | --- | --- |
| mCherry-HA-KEAP1-R320Q (lentiviral, A549-LV cells) (from UniProt Q14145 1-624) | binds | binds |
| mCherry-HA-KEAP1-R470C (lentiviral, A549-LV cells) (from UniProt Q14145 1-624) | binds | binds |
